{
  "sequences": {"note": "Sequences of proteins named here, by UniProt entry; tags and fusion partners are left off. A change or cut given only in a name is not applied to a line headed by its entry. Residues count along the entry.", "UniProt P07359, 17-652": "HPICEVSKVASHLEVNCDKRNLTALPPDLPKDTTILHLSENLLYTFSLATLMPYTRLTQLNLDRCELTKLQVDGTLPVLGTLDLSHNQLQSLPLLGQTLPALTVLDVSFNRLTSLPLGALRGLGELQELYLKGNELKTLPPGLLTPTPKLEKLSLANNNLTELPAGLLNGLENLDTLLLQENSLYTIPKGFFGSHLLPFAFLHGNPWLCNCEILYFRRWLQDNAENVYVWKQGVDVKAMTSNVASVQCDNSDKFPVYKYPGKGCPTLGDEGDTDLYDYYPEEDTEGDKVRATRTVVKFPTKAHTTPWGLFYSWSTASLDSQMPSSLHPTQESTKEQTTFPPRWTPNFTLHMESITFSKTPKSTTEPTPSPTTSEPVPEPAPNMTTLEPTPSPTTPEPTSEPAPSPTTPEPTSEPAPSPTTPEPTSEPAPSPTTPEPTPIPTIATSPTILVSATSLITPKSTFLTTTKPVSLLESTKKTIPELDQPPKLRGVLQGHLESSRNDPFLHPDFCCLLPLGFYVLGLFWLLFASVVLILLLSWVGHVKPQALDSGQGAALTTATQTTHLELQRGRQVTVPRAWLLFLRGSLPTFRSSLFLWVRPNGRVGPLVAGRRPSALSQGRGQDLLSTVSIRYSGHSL", "UniProt P47900": "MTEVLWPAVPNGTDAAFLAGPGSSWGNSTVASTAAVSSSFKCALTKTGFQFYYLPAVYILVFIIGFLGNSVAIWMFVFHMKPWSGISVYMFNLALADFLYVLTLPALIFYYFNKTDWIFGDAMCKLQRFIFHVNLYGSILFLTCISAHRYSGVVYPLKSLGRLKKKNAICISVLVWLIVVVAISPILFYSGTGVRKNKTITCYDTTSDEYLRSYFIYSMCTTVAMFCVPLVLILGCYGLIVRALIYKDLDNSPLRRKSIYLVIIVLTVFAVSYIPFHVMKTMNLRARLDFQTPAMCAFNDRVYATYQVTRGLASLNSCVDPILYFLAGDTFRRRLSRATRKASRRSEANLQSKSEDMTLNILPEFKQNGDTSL", "UniProt Q9H244": "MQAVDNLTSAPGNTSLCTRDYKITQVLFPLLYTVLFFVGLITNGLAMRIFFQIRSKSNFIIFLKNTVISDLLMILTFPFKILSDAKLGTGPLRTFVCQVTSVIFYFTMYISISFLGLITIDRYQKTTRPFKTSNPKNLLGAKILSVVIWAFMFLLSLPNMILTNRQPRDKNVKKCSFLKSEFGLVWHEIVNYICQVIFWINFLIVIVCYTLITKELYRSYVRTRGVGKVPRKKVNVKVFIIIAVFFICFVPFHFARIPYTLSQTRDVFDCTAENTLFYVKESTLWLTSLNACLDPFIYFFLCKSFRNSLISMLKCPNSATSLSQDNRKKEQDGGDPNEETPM", "UniProt P25116, 22-425": "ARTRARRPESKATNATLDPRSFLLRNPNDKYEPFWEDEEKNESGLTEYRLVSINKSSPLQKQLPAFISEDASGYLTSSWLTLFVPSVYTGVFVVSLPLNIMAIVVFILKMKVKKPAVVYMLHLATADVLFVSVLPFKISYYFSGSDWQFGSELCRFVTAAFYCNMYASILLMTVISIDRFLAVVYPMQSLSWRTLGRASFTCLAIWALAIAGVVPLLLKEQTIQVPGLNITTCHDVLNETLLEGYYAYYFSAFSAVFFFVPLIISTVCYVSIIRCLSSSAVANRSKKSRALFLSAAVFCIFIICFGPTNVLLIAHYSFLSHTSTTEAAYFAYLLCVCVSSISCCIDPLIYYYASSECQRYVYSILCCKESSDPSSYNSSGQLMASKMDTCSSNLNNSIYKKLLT"},
  "source": "patent US20100311820",
  "experiment_in_all_cases": "activity in cells",
  "key": {"[1]": {"target": "GP1b alpha (Homo sapiens) (UniProt P07359)", "conditions": "RB567 with 5' branched 40 kDa PEG; no effect on ristocetin-induced aggregation, PRP; protein on the cell surface; protein details: native platelets; variant of RB567; dose not given here"}, "[2]": {"target": "T1, Glycoprotein VI on platelets (Homo sapiens) (UniProt Q9HCN6)", "T1 sequence (limits assumed)": "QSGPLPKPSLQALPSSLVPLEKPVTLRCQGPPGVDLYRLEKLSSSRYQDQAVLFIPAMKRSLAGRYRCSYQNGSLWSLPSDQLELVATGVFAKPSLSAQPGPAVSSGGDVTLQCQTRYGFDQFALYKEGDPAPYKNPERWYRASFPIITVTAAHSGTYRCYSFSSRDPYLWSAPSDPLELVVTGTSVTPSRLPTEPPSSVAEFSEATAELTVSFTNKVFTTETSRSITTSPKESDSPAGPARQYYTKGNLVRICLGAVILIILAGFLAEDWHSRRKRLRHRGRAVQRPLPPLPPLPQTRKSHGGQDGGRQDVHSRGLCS", "conditions": "RB567 with 5' branched 40 kDa PEG; CRP-XL-induced washed platelet aggregation; protein on the cell surface; variant of RB567"}, "[3]": {"target": "P2Y1 (Homo sapiens) (UniProt P47900)", "conditions": "RB567 with 5' branched 40 kDa PEG; no effect on ADP-induced aggregation, washed platelets; protein on the cell surface; protein details: native platelets; variant of RB567; dose not given here"}, "[4]": {"target": "P2Y12 (Homo sapiens) (UniProt Q9H244)", "conditions": "RB567 with 5' branched 40 kDa PEG; no effect on ADP-induced aggregation, washed platelets; protein on the cell surface; protein details: native platelets; variant of RB567; dose not given here"}, "[5]": {"target": "PAR-1 (Homo sapiens) (UniProt P25116)", "conditions": "RB567 with 5' branched 40 kDa PEG; no effect on TRAP-induced aggregation, washed platelets; protein on the cell surface; protein details: native platelets; variant of RB567; dose not given here"}, "[6]": {"target": "T2, Thromboxane A2 receptor (Homo sapiens) (UniProt P21731)", "T2 sequence (looked up, limits assumed)": "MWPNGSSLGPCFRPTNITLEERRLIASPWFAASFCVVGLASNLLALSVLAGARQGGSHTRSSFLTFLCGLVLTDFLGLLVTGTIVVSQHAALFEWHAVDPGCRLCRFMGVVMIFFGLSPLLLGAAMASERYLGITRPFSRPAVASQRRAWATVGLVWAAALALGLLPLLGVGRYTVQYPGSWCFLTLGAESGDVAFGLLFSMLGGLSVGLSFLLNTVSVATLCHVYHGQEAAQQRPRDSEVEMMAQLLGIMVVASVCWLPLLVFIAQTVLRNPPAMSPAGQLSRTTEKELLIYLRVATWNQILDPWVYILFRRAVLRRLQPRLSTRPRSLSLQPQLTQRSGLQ", "conditions": "RB567 with 5' branched 40 kDa PEG; no effect on arachidonic acid-induced aggregation, PRP; protein on the cell surface; protein details: native platelets; variant of RB567; dose not given here"}},
  "note": "Construct, isoform or probe ends are uncertain for at least one entry. For part of these data: No signal at the amounts used counts as a negative. For part of these data: Tags and fusion partners may be left off the protein sequences shown. For part of these data: Where cells or extracts were used, other partners may take part.",
  "data": [
    {"sequence": "GGAGGACGGCGCGCCUGGCAUAAGCCUCC [RB571]", "values": [
      {"measurement": "functional effect of the aptamer", "setting": "[1]", "value": "not active"},
      {"measurement": "IC50", "setting": "[2]", "value": 33, "unit": "nM"},
      {"measurement": "functional effect of the aptamer", "setting": "[3]", "value": "not active"},
      {"measurement": "functional effect of the aptamer", "setting": "[4]", "value": "not active"},
      {"measurement": "functional effect of the aptamer", "setting": "[5]", "value": "not active"},
      {"measurement": "functional effect of the aptamer", "setting": "[6]", "value": "not active"}
    ]}
  ]
}
